The subject of one series is MCF-7 cells. The series is described as follows: Real-time live confocal microscopy, MCF-7. In kind it is cell-based, human. Particulars: MCF-7, 20 μM.
For the next series, the system named is SKBr3 cells. The series can be described thus: Real-time live confocal microscopy, SKBr3. Format: cell-based, human. Particulars: SKBr3, 20 μM.

Experimental findings from publication PMC10983001, “Development of Cytotoxic GW7604-Zeise’s Salt Conjugates as Multitarget Compounds with Selectivity for Estrogen Receptor- Positive Tumor Cells” (Journal of Medicinal Chemistry, 2024) are described below.

For the compound `CCC(=C(c1ccc(O)cc1)c1ccc(C=CC(=O)OCCC[CH]2[CH2][Pt-]2([Cl])([Cl])[Cl])cc1)c1ccccc1.[K+]` (mixture of isomers) [GW7604-Pent-PtCl3, Potassium trichlorido[η^2-(pent-4-en-1-yl (E)-3-(4-((E/Z)-1-(4-hydroxyphenyl)-2-phenylbut-1-en-1-yl)phenyl)acrylate)]platinate(II)], the “intracellular fluorescence / vesicles” value is given as “fluorescent vesicles were detected” in the series on MCF-7 cells and “only extremely low fluorescence” with SKBr3 cells. The diameter of vesicles in the series with MCF-7 cells (48 h) came to 2.80 ± 0.89 μm.
